Some of these results come from one statement about several compounds together.
Test: Hygroscopicity by dynamic vapor sorption (DVS)
Format: physicochemical
Conditions: exposure to between 0 and 90% relative humidity at 25° C.
Protocol: The hygroscopicity of the crystalline forms of the salts of 3-[(dimethylamino)methyl]-N-{2-[4-(hydroxycarbamoyl)phenoxy]ethyl}-1-benzofuran-2-carboxamide according to the invention was evaluated by dynamic vapor sorption (DVS) using a DVS Intrinsic apparatus. A sample of 5 to 10 mg of the substance, weighed accurately, was disposed in a DVS sample pan operating at 25° C. under controlled humidity. The mass variation was recorded on the basis of a balancing bearing at 50% relative humidity, followed by three subsequent linear phases of increasing (from 50 to 90%), of decreasing (from 90 to 0%) and of increasing (from 0 to 50%) the relative humidity at a speed of 10% per hour. […]
The hygroscopicity of the hemipentahydrate crystalline form of the hydrogen sulfate of 3-[(dimethylamino)methyl]-N-{2-[4-(hydroxycarbamoyl)phenoxy]ethyl}-1-benzofuran-2-carboxamide according to the invention was evaluated by dynamic vapor sorption (DVS) using a DVS Intrinsic apparatus. […] The mass variation was recorded on the basis of a balancing bearing at 50% relative humidity, followed by three subsequent linear phases of increasing (from 50 to 90%), of decreasing (from 90 to 0%) and of increasing (from 0 to 50%) the relative humidity at a speed of 10% per hour. […]

Benzenesulfonate of 3-[(dimethylamino)methyl]-N-{2-[4-(hydroxycarbamoyl)phenoxy]ethyl}-1-benzofuran-2-carboxamide [Example 4]
mass variation detected by DVS analysis: less than 1%

naphthalene-1,5-disulfonate of 3-[(dimethylamino)methyl]-N-{2-[4-(hydroxycarbamoyl)phenoxy]ethyl}-1-benzofuran-2-carboxamide [Example 1]
mass variation detected by DVS analysis: less than 1%

From patent US20170266151A1, “Novel salts of 3-[(DIMETHYLAMINO)METHYL]-N--1-BENZOFURAN-2-CARBOXAMIDE, related crystalline forms, method for preparing the same and pharmaceutical compositions containing the same” (Pharmacyclics LLC, priority 2014, published 2017)
